We go through four substances from publication PMC9331606 (2022).

The chains behind the UniProt entries cited, without tags or fusion partners. Residues count along the entry.
UniProt P29590: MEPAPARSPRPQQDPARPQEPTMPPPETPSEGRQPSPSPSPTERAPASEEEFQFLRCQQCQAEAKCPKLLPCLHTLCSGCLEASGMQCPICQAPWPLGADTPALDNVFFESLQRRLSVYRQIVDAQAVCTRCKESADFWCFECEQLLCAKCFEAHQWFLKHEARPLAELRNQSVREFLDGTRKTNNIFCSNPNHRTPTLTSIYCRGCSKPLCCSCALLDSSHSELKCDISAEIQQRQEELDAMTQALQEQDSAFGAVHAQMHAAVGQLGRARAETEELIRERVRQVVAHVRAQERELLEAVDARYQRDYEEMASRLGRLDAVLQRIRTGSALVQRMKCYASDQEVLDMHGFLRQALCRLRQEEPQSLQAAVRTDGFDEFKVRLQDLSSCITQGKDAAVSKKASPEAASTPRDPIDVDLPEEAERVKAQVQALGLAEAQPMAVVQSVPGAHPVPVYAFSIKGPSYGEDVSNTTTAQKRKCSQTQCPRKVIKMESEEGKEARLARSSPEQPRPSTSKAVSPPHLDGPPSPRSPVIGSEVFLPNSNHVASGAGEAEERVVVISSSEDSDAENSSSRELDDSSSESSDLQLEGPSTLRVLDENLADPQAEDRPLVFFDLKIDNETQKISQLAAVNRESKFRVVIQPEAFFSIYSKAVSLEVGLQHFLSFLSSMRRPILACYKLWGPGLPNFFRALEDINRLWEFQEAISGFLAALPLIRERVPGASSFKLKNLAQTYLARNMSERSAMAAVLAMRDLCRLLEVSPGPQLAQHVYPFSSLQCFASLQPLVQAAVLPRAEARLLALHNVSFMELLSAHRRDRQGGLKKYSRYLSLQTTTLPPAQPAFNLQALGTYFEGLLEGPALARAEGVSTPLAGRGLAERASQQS
UniProt P39748, residues 176-380: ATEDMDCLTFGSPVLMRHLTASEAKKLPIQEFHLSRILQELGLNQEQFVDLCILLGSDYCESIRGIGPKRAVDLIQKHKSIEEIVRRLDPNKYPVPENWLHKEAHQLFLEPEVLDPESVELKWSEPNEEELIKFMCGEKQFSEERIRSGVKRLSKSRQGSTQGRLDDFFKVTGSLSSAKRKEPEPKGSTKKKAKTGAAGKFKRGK
UniProt P52630: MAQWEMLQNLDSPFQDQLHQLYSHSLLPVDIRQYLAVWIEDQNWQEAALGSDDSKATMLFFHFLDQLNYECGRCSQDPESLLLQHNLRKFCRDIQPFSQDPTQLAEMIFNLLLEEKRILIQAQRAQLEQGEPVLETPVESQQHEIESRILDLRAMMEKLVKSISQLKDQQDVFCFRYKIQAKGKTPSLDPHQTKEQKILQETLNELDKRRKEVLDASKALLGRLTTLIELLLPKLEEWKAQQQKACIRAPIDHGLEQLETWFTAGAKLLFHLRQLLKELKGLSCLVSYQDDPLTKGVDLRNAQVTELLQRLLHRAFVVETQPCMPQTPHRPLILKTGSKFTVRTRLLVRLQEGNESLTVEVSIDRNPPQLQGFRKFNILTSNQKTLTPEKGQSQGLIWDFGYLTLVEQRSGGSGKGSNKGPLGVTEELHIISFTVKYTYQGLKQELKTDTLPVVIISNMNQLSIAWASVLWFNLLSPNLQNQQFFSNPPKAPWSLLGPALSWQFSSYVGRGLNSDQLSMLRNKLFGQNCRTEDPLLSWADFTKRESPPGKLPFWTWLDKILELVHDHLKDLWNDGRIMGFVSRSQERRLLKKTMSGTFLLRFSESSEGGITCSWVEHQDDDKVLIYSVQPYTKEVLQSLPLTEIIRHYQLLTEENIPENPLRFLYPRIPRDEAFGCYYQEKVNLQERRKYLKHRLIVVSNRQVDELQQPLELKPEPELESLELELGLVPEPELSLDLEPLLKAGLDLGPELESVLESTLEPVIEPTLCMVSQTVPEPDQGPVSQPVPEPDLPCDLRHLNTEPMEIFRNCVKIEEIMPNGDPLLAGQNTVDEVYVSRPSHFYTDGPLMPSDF

Results are given in words; binding and its absence hold for the method and conditions named. Binding seen in cells or lysates may run through a third protein. Some results given as binding are weak or reduced against the parent protein; the word gives no strength.

The target of experiment [1] is NanoLuciferase-tagged human promyelocytic leukemia protein (hPML) (UniProt P29590). Kind of experiment: FRET or BRET. (In general: In BRET a luciferase serves as donor, and the signal depends on an acceptor being close.)
Experiment [2] concerns the target NanoLuciferase-tagged human flap endonuclease 1 aa 176-380 (human) (UniProt P39748). Kind of experiment: FRET or BRET; NanoBRET (Promega) in living HEK293T cells co-transfected with Halo-tagged and Luc-tagged proteins for 24 h; DNA ratio IE1 to human PML and FEN1 aa 176-380 1:10, to rat PML 1:100; 4 h with Halo ligand at 37 °C; read at 618 nm and 448 nm.
Experiment [3] addresses NanoLuciferase-tagged human promyelocytic leukemia protein (hPML) (UniProt P29590). Described as above.
Experiment [4] deals with Flag-tagged human cytomegalovirus IE1 (hIE1), doxycycline-induced in HFF (human cytomegalovirus (HCMV)) (UniProt P13202). The experiment is described as follows: co-IP.

With “Halo-tagged human cytomegalovirus immediate early 1 protein (hIE1) (from UniProt P13202 1-491)”, the binding result in experiment [1] and in experiment [2] was “binds” each time. In the case of “NanoLuciferase-tagged human promyelocytic leukemia protein (hPML) (from UniProt P29590 1-882)”, in experiment [1], the binding result is reported as “binds”.

As to “Halo-tagged hIE1 L174P (from UniProt P13202 1-491)”, the binding entry in experiment [3] is recorded as “no binding”.

As for “human signal transducer and activator of transcription 2 (hSTAT2), endogenous (from UniProt P52630 1-851)”, the binding result in experiment [4] was “binds”.
